{"source": "PubChem BioAssay AID652259, Drosophila RNAi Screening Center | 2013", "test": "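Identify new Wingless signalling regulators in fly cells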 (primary screen)", "system": "Drosophila clone 8 imaginal disc epithelial cells", "reagent": "long dsRNA against Drosophila genes", "conditions": "pathway stimulated by co-transfected Wingless expression plasmid", "read-out": "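Firefly luciferase from a tcf-site Wingless reporter, measured alongside co-transfected Renilla luciferase that tracks transfection; pathway stimulated by a Wingless plasmid; the firefly-to-Renilla ratio is not deposited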", "scale": "firefly reporter light: higher = more Wg reporter light, before normalisation; Renilla control light: higher = more transfected or surviving cells", "hit rule": "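Strong candidates differ from their plate mean by at least two out of four per-plate statistical tests; weak candidates meet just one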", "calls": "active = candidate regulator (raises or lowers reporter); inactive = not a candidate", "note": "The screen tested about 22,000 reagents; below is a random part of those that have a named target and a result. Of all reagents, 233 (1.1%) were called active. 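Light values are raw, unnormalised plate reads; the ratio scores behind the reporter calls were not deposited.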 A number with no mark means an inactive call. No sequences are given here. The record does not give: the amount of reagent, the time to read-out, the dose of the treatment."}
{"target":"Ppi1 (Protein phosphatase 1c interacting protein 1)","DRSC id":"DRSC15421","firefly reporter light, replicate 1":1478,"firefly reporter light, replicate 2":4178,"Renilla control light, replicate 1":1106,"Renilla control light, replicate 2":1856}
{"target":"pHCl-2 (pH-sensitive chloride channel 2)","DRSC id":"DRSC14306","firefly reporter light, replicate 1":9092,"Renilla control light, replicate 1":3418}
{"target":"Duox (Dual oxidase)","DRSC id":"DRSC00571","firefly reporter light, replicate 1":4308,"firefly reporter light, replicate 2":11036,"Renilla control light, replicate 1":1088,"Renilla control light, replicate 2":3051}
{"target":"Recs1","DRSC id":"DRSC16545","firefly reporter light, replicate 1":10337,"Renilla control light, replicate 1":2212}
{"target":"Art4 (Arginine methyltransferase 4)","DRSC id":"DRSC15779","firefly reporter light, replicate 1":13657,"Renilla control light, replicate 1":3627}
{"target":"CG31161","DRSC id":"DRSC16144","firefly reporter light, replicate 1":23024,"Renilla control light, replicate 1":16800}
{"target":"CG14684","DRSC id":"DRSC14907","firefly reporter light, replicate 1":18264,"Renilla control light, replicate 1":4291}

2 consecutive entries from above, for reference:
{"target":"Art4 (Arginine methyltransferase 4)","DRSC id":"DRSC15779","firefly reporter light, replicate 1":13657,"Renilla control light, replicate 1":3627}
{"target":"CG31161","DRSC id":"DRSC16144","firefly reporter light, replicate 1":23024,"Renilla control light, replicate 1":16800}

The results go on.
{"target":"GluRIIC (Glutamate receptor IIC)","DRSC id":"DRSC00642","firefly reporter light, replicate 1":5475,"Renilla control light, replicate 1":2649}
{"target":"Pgm1 (Phosphoglucose mutase 1)","DRSC id":"DRSC10490","firefly reporter light, replicate 1":2449,"Renilla control light, replicate 1":1219}
{"target":"dco (discs overgrown)","DRSC id":"DRSC16929","firefly reporter light, replicate 1":3664,"firefly reporter light, replicate 2":8086,"Renilla control light, replicate 1":892,"Renilla control light, replicate 2":2484}
{"target":"uncNacbeta","DRSC id":"DRSC00326","firefly reporter light, replicate 1":4044,"firefly reporter light, replicate 2":4284,"Renilla control light, replicate 1":1424,"Renilla control light, replicate 2":2733}
{"target":"CG10298","DRSC id":"DRSC12522","firefly reporter light, replicate 1":10715,"Renilla control light, replicate 1":3872}
{"target":"CG3732","DRSC id":"DRSC04410","firefly reporter light, replicate 1":13730,"Renilla control light, replicate 1":2220}
{"target":"Helz (Helicase with zinc finger)","DRSC id":"DRSC11072","firefly reporter light, replicate 1":4841,"Renilla control light, replicate 1":1853}
{"target":"CG14958","DRSC id":"DRSC08417","firefly reporter light, replicate 1":6688,"Renilla control light, replicate 1":2253}
{"target":"veg (retired record)","DRSC id":"DRSC07714","firefly reporter light, replicate 1":6992,"Renilla control light, replicate 1":2002}
{"target":"tay (tay bridge)","DRSC id":"DRSC20142","firefly reporter light, replicate 1":1835,"firefly reporter light, replicate 2":5901,"Renilla control light, replicate 1":784,"Renilla control light, replicate 2":1849}
